No constants are given. Whether binding was seen depends on the method and setting. Binding seen in cells or lysates may run through a third protein. Some results given as binding are weak or reduced against the parent protein; the word gives no strength. For part of these data: Tags and fused reporters may be left off the sequences shown.
Experiments:
Test in all cases: co-IP
FLAG-TPD52 (human) = molecular target: T1, FLAG-TPD52 (human) (UniProt P55327)
T1 sequence: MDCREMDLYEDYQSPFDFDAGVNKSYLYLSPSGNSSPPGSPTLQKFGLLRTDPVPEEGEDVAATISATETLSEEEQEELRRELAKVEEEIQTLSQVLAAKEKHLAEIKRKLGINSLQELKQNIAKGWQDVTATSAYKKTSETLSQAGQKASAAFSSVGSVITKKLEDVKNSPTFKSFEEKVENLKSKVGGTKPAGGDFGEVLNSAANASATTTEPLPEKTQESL

Amino acid sequences for entries named in this document (tags omitted).
UniProt O43399: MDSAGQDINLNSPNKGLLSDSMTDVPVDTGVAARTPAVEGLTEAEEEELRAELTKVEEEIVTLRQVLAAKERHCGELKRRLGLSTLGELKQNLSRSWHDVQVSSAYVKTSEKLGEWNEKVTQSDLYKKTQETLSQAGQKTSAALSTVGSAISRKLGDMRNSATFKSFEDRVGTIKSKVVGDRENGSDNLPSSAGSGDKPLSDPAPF

FLAG-TPD53 (human) = molecular target: T2, FLAG-TPD53 (human) (UniProt Q16890)
T2 sequence: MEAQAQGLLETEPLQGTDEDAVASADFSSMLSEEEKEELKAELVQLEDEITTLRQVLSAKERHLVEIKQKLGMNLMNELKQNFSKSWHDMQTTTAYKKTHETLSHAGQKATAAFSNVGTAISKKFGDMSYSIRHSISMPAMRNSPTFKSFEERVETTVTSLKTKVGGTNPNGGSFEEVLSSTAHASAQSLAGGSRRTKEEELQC

FLAG-TPD54 (human) = FLAG-TPD54 (human) (UniProt O43399)

Measured: binding

GFP-FKBP-TPD54 (from UniProt O43399 1-206)
binds: FLAG-TPD52 (human) | FLAG-TPD53 (human) | FLAG-TPD54 (human)

From doi:10.1101/2020.08.19.257287
